Laboratory results: PMC3117881
Results are given in words; binding and its absence hold for the method and conditions named. Binding seen in cells or lysates may run through a third protein. Some results given as binding are weak or reduced against the parent protein; the word gives no strength.

Amino acid sequences for entries named in this document (tags omitted). A change or cut given only in a name is not applied to a line headed by its entry. Residues count along the entry.
UniProt Q9UMX0: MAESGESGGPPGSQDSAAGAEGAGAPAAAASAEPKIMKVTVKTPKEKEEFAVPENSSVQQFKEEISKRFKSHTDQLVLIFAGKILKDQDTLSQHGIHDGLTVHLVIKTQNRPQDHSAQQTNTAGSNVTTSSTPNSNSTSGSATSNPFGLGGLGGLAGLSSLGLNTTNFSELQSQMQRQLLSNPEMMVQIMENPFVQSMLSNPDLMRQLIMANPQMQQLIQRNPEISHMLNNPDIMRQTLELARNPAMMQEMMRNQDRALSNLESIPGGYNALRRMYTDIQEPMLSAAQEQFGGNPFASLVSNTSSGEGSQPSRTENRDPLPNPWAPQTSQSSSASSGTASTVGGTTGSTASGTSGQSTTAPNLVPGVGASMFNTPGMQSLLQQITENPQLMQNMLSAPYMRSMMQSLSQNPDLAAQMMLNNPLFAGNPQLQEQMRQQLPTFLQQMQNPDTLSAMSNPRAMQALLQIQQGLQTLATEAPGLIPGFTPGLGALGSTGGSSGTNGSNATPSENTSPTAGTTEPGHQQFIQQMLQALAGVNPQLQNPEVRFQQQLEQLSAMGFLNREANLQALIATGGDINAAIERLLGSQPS
GST fusion protein containing PLIC-1 Uba domain alone: residues 546-586 of Q9UMX0
UniProt Q8IUC6: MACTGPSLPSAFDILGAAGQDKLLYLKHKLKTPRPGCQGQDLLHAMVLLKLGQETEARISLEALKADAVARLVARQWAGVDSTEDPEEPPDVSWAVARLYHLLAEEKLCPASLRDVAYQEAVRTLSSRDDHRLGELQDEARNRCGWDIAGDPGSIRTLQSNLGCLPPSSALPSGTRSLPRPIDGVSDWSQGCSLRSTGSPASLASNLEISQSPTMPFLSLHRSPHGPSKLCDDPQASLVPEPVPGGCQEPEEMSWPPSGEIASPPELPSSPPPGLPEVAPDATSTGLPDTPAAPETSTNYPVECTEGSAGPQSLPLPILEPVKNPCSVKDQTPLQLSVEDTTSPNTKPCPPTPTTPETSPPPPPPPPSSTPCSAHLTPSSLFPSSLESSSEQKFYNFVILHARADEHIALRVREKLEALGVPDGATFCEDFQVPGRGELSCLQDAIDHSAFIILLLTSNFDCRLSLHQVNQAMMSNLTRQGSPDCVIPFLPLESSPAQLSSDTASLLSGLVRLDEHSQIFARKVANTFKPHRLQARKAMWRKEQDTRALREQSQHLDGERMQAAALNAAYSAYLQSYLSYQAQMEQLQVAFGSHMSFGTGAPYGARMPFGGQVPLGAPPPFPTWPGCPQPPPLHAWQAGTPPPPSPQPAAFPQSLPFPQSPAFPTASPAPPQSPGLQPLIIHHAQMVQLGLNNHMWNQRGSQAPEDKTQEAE

What was measured:
[1] = target: GST fusion protein containing PLIC-1 Uba domain alone (UniProt Q9UMX0); assay: pull-down; GST fusion proteins (around 2 µg) mixed with cell lysates containing Flag-Trif for 2 hours; bound proteins eluted from the GST column and analysed for Flag-Trif; only the target purified
Flag-Trif = Flag-Trif (UniProt Q8IUC6); assay: co-IP; 293T cells cotransfected with YFP-PLIC1 or GFP and Flag-Trif; lysates on M2 anti-Flag affinity resin, washed with PBS, western blot

binding [1]	binding (Flag-Trif)	Substance
binds	–	Flag-Trif (from UniProt Q8IUC6 1-712)
–	binds	YFP-PLIC-1 (protein linking integrin-associated protein to cytoskeleton 1) (from UniProt Q9UMX0 1-589)
